From the supplement of paper PMC3334620
Over roughly 33,000 sequences, “E-score (-0.5 to 0.5)” has its median near -0.0034; the highest 2% begin near 0.25. The list shows a part of the results.

Molecular target: T1, Yap3 (UniProt P38749)
T1 sequence: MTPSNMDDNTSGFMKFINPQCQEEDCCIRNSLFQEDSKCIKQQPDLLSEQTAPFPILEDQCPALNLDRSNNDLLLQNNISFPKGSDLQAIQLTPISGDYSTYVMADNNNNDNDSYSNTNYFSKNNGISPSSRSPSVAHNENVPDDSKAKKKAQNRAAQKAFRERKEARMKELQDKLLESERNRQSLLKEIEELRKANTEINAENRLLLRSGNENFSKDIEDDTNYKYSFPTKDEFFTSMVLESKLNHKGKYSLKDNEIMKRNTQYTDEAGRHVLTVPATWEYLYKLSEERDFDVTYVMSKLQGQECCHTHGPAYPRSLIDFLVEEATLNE
Test: PBM E-score (8-mer binding enrichment) (E-score (-0.5 to 0.5)); higher = stronger / more preferred TF binding
Conditions: protein concentration: 100 nM; construct: GST-full length
Outline: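 Using PURExpress in vitro transcription/translation, GST-tagged yeast transcription factors were made in full-length or DNA-binding-domain form. These were applied at about 100-200 nM to double-stranded universal all-10-mer Agilent arrays, and bound protein was detected with fluorescent anti-GST. Scans were normalised with masliner before the Universal PBM Analysis Suite assigned E-scores to ungapped eight-base words pooled with their reverse complements.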

| Sequence | PBM E-score |
| --- | --- |
| CGGCCGAC | -0.0351 |
| ACAGAGAA | 0.0641 |
| CTAGGTGC | -0.195 |
| GTAAGTCA | 0.025 |
| ACTGGCGG | -0.0184 |
| CCTTTAAG | -0.106 |
| ACCGGCGG | -0.22 |
| TATTGAGA | 0.193 |
| CACGTAGC | -0.273 |
| CATGAACC | 0.0622 |
| GAATTGGA | 0.0794 |
| CGTTGCCC | -0.15 |
| CCCCTAAG | -0.165 |
| TTAATAAA | 0.372 |
| TGACTCCA | -0.329 |
| CACGTTCG | -0.00184 |
| CTAGGAGA | -0.182 |
| AACCGCGT | 0.199 |
| GTACTTAA | -0.0578 |
| CACAGGTC | -0.158 |
| ATAGGCCG | -0.231 |
| ATACAAAC | 0.239 |
| AGCCTGCC | -0.103 |
| GGCGCCGA | 0.00064 |
| AACGAACA | 0.259 |

| Sequence | PBM E-score |
| --- | --- |
| GAGACCGA | -0.0759 |
| CAACGTCA | -0.0272 |
| TCCAAAAA | 0.0789 |
| GACCATGC | -0.0665 |
| GTAATGGA | 0.288 |
| ACTCCTGG | -0.163 |
| CCGATACG | -0.0939 |
| CCGTCAGG | -0.227 |
| AAGACTTC | -0.161 |
| AGTGGTGC | -0.0298 |
| GCCTGACC | -0.168 |
| ACCCCCTG | -0.427 |
| AGGTGAGC | -0.183 |
| ACGTCTAG | -0.0164 |
| CCTGGCTC | -0.16 |
| GCCTAGGC | -0.131 |
| AGTGACCG | -0.211 |
| ACCGTGGA | -0.125 |
| CAGTAAGA | 0.129 |
| CCGACGAA | 0.11 |
| ACTCACGG | 0.109 |
| GTTAGGGA | -0.0734 |
| CGTGGCAG | -0.0996 |
| CGCGTGGA | -0.183 |
| ACTAAACA | 0.237 |

| Sequence | PBM E-score |
| --- | --- |
| AACCAACA | -0.00605 |
| ATCATCCC | 0.016 |
| CGTTTATC | 0.117 |
| CGTCATTA | 0.161 |
| GTCAACCA | -0.0972 |
| ATGACGAC | 0.113 |
| ACCACGCG | 0.0791 |
| ATAGTGGG | 0.0666 |
| GCCCCCTA | -0.246 |
| AGATCGAG | 0.0939 |
| AGGCATGG | 0.00347 |
| ACCCATAA | 0.0521 |
| GCTGCCCC | -0.196 |
| CAGTTAAC | 0.112 |
| GGGGTCAA | -0.0796 |
| AAACGAGA | 0.0399 |
| AATGCTTA | 0.145 |
| CGCCCGCA | -0.0032 |
| CACGCTAA | 0.0663 |
| AGCATGCC | -0.108 |
| GGAAGTCA | 0.0375 |
| AGTGCCTG | -0.0521 |
| GCCCGGTA | -0.119 |
| GGTTTCAA | 0.118 |
| GTCGATCA | -0.0564 |

Look-ups from above:
PBM E-score with GCCCGGTA is entered as -0.119
PBM E-score with AATGCTTA is entered as 0.145
PBM E-score with GGGGTCAA is entered as -0.0796
PBM E-score with CAGTTAAC is entered as 0.112
PBM E-score with AGATCGAG is entered as 0.0939

(next part)

| Sequence | PBM E-score |
| --- | --- |
| ACTTTCTC | 0.0826 |
| CGGACTGC | -0.138 |
| AATGCATG | 0.188 |
| ATTGAGCG | 0.0784 |
| CGTAAATA | 0.262 |
| ATTTTCCG | 0.325 |
| AATCTTGA | -0.0715 |
| ATTCGTTA | 0.25 |
| ACTGTTTA | 0.0153 |
| ATCTACTA | 0.185 |
| AGTCTCAG | -0.122 |
| ATGTTAAC | 0.173 |
| AAGCCATG | -0.225 |
| CCAATCGA | 0.0798 |
| GATACTTA | -0.117 |
| CACTCAGG | -0.13 |
| AACCCACC | -0.0511 |
| AACATAAG | 0.308 |
| GACACCGA | -0.136 |
| AGCAGCTA | 0.0398 |
| CAACTGGG | -0.294 |
| CGAATCTA | -0.00374 |
| GATCCCCA | -0.15 |
| TGGCAGAA | 0.045 |
| CCCTGTTC | -0.17 |

| Sequence | PBM E-score |
| --- | --- |
| CTTCCAAG | -0.0916 |
| GTTGCATA | -0.0298 |
| ATCTCGCG | 0.228 |
| GAGCACAC | -0.15 |
| CTTCAACC | 0.124 |
| GCAGGCCC | -0.296 |
| CCCATTCC | -0.238 |
| ATATGGAC | 0.0106 |
| AAACTCCC | -0.213 |
| AAGATTAG | 0.13 |
| GCCCTGAA | -0.0295 |
| TGAACTCA | -0.0419 |
| CCTAAAGC | -0.065 |
| AATCGCTA | -0.00025 |
| GGGTAGAA | 0.0334 |
| ATGAAATA | 0.288 |
| ACCCAACG | 0.134 |
| ATCCATAC | 0.179 |
| GGGAGTAC | -0.129 |
| CACGGCCC | -0.14 |
| CTTGGGAA | 0.0327 |
| CTAGTAGA | 0.0227 |
| AGCGCCCG | -0.176 |
| ACACCGTC | -0.138 |
| CAGTTGAC | 0.0875 |

| Sequence | PBM E-score |
| --- | --- |
| CCGCGCCA | -0.0462 |
| GCGTTGAA | 0.0801 |
| AATAGAAC | 0.16 |
| GTGGTCTA | -0.118 |
| GCCTTAGC | -0.145 |
| GATGTCCC | -0.134 |
| ATTTTCGA | 0.0465 |
| ACGATGCT | -0.0997 |
| AACTAGAA | 0.0548 |
| GTCAGGAC | -0.137 |
| CCTAACCC | -0.369 |
| CAAATCCG | 0.0064 |
| CAATGGTC | 0.127 |
| AAAGGTTC | -0.114 |
| TCAGTGCA | 0.0208 |
| GAACACAC | -0.0245 |
| AACCGGGA | -0.124 |
| CAGCAGGA | -0.101 |
| AAGGGAAG | -0.0577 |
| AGAATACG | 0.0873 |
| CTTGGTCC | 0.0374 |
| CACAACAG | -0.185 |
| ATAATGGC | 0.0359 |
| GTCGAAAA | 0.12 |
| CAGTCCCA | -0.204 |

| Sequence | PBM E-score |
| --- | --- |
| AATGCTCC | -0.0867 |
| AGCCTGGG | -0.287 |
| CAACCTAG | -0.107 |
| CTATACGC | 0.066 |
| CTGCTTCC | -0.138 |
| AGAAGTTC | -0.0511 |
| TAAAACTA | 0.151 |
| AATTAACA | 0.21 |
| TGGCGACA | 0.022 |
| ATCCGGGG | -0.0179 |
| AAGGTGTA | 0.0912 |
| CACTGCCA | 0.0521 |
| AACCCAGT | -0.0655 |
| GGGGGACC | -0.358 |
| CGATCTAA | 0.166 |
| AAAGCATT | 0.07 |
| CCATGCAA | 0.0692 |
| ACTGGCTG | -0.137 |
| GCGACTAC | -0.0411 |
| ACAACTCC | 0.146 |
| AGAATGAT | 0.209 |
| AAATCCAG | 0.249 |

An excerpt of these results, bar-delimited:
Sequence | PBM E-score
ATGACGAC | 0.113
ACCACGCG | 0.0791
